Some of the results follow. Residues, ends and D or L forms follow the SMILES beside them. *: point of attachment. Cbz = O=C(OCc1ccccc1)*

By UniProt entry, the sequences of proteins in these tests, tags left out. Where a name states a change or a piece, a line headed by the entry shows the natural chain unless it says otherwise.
UniProt Q9H477: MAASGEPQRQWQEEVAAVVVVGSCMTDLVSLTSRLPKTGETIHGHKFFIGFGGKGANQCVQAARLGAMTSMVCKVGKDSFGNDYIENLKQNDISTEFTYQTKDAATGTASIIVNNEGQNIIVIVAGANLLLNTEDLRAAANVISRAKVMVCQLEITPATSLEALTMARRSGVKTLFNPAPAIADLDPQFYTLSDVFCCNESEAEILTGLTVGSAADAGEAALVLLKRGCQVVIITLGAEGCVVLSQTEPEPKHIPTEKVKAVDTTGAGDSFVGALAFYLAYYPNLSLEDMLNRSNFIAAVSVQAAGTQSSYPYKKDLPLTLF
UniProt P20337: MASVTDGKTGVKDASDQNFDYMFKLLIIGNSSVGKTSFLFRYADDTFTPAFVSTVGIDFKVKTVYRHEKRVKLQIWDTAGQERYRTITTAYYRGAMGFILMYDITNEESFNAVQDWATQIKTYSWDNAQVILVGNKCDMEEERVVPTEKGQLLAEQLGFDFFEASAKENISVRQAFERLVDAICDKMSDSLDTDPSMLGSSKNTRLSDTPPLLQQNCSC
UniProt Q9BXF6: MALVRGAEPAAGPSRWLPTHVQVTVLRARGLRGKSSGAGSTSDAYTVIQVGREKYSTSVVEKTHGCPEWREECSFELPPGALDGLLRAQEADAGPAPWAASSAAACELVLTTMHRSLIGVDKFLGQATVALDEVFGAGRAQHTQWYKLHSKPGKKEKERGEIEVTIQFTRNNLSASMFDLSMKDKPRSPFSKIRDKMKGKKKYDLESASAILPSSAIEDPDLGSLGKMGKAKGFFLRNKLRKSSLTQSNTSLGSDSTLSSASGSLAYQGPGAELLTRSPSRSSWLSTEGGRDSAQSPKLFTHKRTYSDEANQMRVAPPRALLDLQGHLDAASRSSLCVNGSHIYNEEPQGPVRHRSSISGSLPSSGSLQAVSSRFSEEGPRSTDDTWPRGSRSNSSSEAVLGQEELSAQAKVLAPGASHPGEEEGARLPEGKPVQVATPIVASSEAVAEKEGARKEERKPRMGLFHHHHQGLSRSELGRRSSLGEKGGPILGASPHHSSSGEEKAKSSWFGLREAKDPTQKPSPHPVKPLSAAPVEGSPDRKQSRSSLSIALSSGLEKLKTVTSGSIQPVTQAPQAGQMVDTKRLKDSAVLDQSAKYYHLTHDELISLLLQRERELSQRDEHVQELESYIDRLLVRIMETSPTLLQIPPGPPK
UniProt Q9NS23: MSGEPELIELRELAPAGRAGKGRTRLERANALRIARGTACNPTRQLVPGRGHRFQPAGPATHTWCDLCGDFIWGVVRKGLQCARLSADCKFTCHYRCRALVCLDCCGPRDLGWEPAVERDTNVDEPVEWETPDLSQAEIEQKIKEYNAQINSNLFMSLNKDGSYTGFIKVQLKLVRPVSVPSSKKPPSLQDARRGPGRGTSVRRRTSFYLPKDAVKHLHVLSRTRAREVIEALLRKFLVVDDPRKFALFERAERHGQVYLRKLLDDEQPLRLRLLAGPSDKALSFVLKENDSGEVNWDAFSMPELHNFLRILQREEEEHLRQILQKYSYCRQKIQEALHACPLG
UniProt Q86U06: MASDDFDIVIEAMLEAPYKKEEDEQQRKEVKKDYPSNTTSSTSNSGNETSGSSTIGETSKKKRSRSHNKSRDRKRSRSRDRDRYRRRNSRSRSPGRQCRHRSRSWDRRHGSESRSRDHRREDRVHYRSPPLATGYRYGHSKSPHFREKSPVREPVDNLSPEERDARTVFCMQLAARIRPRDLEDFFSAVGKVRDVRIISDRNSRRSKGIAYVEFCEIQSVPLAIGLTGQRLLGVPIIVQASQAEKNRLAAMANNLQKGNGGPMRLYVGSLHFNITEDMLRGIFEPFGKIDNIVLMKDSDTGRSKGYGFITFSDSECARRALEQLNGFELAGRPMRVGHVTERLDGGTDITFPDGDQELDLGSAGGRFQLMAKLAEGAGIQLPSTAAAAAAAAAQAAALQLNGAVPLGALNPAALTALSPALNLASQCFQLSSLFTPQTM
UniProt Q15283: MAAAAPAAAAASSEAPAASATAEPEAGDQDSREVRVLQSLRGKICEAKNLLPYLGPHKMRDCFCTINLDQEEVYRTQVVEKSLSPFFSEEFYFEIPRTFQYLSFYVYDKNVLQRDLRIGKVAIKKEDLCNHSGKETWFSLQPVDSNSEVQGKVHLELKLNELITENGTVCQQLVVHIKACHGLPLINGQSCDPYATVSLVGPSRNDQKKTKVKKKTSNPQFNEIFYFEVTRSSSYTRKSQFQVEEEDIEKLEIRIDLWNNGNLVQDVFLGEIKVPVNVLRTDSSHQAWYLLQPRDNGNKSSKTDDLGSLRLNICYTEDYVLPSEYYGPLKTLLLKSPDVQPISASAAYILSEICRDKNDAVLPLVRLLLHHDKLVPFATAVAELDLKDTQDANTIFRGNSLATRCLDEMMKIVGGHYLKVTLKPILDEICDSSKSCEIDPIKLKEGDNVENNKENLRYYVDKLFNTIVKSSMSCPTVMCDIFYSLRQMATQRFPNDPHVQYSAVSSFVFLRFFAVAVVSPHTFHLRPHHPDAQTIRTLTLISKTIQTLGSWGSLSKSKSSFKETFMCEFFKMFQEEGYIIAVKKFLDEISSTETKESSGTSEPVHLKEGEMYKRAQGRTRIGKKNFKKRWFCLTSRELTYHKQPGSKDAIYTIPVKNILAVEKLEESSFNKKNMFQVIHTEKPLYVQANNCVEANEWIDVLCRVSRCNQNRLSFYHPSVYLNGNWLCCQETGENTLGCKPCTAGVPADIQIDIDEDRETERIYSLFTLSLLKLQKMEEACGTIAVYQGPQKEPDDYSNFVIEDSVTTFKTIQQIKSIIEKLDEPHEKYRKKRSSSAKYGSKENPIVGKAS
UniProt O75771: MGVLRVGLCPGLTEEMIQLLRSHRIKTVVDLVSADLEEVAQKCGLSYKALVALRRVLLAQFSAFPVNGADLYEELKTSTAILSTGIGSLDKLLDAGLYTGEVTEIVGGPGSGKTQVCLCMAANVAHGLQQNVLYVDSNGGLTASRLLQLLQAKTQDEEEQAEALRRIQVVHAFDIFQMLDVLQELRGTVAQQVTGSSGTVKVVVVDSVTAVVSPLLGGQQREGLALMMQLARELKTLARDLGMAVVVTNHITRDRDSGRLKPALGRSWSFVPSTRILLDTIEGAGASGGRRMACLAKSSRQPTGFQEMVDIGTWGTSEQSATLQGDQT
UniProt O60518: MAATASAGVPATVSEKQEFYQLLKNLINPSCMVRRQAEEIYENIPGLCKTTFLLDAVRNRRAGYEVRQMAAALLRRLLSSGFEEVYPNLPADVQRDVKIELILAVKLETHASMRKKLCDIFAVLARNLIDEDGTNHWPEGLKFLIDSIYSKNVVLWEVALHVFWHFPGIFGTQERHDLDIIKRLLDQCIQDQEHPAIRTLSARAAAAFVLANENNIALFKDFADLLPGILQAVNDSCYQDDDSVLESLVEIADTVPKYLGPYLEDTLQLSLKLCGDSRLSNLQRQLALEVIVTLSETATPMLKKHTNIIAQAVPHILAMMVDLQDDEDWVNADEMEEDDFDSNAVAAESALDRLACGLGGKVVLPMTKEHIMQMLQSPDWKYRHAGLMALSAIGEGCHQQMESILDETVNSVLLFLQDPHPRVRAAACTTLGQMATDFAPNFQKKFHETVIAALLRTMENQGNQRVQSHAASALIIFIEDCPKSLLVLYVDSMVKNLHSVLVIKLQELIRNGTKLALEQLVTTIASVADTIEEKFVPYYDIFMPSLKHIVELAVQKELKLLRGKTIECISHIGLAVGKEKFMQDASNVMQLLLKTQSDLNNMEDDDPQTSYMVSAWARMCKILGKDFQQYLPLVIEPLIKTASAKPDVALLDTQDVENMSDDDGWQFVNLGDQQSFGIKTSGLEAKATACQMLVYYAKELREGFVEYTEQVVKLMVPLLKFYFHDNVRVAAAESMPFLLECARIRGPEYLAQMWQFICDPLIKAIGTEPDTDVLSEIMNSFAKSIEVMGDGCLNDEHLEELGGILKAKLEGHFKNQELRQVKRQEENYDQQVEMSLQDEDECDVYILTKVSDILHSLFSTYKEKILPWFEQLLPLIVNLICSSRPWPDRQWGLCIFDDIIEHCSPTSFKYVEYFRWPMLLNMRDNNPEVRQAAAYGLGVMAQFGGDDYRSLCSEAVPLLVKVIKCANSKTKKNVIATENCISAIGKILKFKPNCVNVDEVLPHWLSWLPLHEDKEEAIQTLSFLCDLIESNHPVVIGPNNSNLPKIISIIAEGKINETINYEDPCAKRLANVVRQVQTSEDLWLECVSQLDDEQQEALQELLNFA
UniProt O00194: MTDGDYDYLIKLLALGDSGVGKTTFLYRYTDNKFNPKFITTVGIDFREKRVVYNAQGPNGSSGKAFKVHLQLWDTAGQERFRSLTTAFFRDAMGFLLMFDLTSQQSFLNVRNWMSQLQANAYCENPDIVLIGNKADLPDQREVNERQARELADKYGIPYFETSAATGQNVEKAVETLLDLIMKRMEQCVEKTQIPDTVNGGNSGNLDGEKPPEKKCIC
UniProt Q86X10: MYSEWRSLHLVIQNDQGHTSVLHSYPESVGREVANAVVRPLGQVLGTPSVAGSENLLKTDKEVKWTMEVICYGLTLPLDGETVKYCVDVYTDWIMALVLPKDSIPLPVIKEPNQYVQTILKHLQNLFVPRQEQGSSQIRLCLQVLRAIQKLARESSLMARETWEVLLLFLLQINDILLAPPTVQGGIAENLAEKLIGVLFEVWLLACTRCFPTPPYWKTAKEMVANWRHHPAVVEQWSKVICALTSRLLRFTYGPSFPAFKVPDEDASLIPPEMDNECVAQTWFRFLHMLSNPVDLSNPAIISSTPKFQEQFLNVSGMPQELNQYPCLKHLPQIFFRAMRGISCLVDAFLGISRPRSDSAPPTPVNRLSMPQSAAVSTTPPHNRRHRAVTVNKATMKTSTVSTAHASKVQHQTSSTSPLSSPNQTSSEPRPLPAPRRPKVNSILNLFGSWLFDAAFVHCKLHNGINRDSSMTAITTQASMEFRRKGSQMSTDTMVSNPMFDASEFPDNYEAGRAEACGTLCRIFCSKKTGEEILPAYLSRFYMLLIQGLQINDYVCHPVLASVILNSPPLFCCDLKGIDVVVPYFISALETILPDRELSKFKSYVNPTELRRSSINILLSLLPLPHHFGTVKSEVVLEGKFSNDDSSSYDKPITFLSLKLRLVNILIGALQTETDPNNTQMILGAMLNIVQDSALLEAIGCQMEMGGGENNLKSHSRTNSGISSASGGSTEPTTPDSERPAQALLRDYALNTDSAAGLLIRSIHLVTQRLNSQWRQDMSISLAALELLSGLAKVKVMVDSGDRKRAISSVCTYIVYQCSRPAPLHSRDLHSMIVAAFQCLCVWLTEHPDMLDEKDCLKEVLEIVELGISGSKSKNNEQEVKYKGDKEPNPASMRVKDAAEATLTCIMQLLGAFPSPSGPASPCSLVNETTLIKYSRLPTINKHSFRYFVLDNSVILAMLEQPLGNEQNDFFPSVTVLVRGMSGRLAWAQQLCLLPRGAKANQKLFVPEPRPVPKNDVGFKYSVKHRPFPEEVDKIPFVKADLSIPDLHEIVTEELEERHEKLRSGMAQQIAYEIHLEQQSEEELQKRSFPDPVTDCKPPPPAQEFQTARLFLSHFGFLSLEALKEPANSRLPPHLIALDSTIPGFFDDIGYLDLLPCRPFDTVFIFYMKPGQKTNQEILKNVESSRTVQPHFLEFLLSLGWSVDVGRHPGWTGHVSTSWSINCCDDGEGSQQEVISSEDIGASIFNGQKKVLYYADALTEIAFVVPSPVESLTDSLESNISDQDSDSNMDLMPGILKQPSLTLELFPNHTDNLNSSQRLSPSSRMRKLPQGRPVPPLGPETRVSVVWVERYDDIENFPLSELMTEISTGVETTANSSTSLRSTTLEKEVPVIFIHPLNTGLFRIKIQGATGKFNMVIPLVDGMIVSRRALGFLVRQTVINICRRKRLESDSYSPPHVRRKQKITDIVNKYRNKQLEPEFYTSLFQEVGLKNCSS
UniProt Q86WH2: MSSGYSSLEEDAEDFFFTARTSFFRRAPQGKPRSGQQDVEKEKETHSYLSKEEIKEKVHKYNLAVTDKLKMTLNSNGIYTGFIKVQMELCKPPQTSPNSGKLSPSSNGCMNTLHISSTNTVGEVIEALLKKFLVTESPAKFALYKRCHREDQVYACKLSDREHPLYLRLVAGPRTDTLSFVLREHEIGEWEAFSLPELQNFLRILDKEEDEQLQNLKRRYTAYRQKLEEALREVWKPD
UniProt O95716: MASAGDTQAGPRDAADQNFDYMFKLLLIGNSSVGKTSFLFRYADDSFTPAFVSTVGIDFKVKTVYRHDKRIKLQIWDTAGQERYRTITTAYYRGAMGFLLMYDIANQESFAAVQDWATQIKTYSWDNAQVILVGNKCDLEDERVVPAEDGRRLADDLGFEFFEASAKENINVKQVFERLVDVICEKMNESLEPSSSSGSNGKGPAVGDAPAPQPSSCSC

Compound in this assay: CC(C)C[C@@H](C=O)NC(=O)[C@H](CC(C)C)NC(=O)[C@H](CC(C)C)NC(=O)OCc1ccccc1
The experiment in a line: log2 fold change, soluble protein after heating vs DMSO (PISA); higher = thermal stabilisation; K562 cells, 10 uM, 30 min; active = over 0.2 and 3.5 SD of the protein, either way, in both replicates (recomputed). Summed up: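 K562 cells at 2×10^6 cells/mL were treated for 30 min with 10 μM compound, and aliquots were heated for 3 min over 48°C-58°C before pooling. Extraction used PBS with 0.5% NP-40 at 4°C, and soluble protein was the supernatant after 21,000xg for 90 min, measured by TMTpro 16plex LC-MS/MS with channel sums equalised. Thermal stability values, relative to control samples and from duplicates, are log2 fold changes.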
Consider RBM14 (UniProt Q96PK6), for which the log2 fold change was inactive: 0.058.

In the case of RBKS (UniProt Q9H477), the log2 fold change was inactive: -0.109. Next, RAB28 (UniProt P51157): inactive: 0.086. In the case of RAD50, A0A494C0Y7, the log2 fold change is inactive: 0.196. For RAB3B (UniProt P20337), the log2 fold change was inactive: 0.187.

For the target RAI1 (UniProt Q7Z5J4), the log2 fold change was inactive: -0.061. Next, RAB11FIP5 (UniProt Q9BXF6): inactive: -0.062. Regarding RASSF1 (UniProt Q9NS23), the log2 fold change was inactive: 0.154.

With RABEP2 (UniProt Q9H5N1), the log2 fold change is inactive: 0.136. Turning to RASA1 (UniProt P20936), the log2 fold change was inactive: 0.063.

As for RBM23 (UniProt Q86U06), the log2 fold change was inactive: 0.123. As for RASA2 (UniProt Q15283), the log2 fold change is inactive: 0.327. Next, RAP1B (UniProt F5GWU8): inactive: -0.001; RAD51D (UniProt O75771): inactive: -0.071; RANBP6 (UniProt O60518): inactive: -0.107. With RAB27B (UniProt O00194), the log2 fold change was inactive: 0.106.

In the case of RAPGEF5, A0A590UJR0, the log2 fold change was inactive: -0.083. Take RALGAPB (UniProt Q86X10): the log2 fold change is inactive: 0.063. Next, RASSF3 (UniProt Q86WH2): inactive: 0.244; RAB3D (UniProt O95716): active: -0.605.

The values are drawn from the supplement of paper PMC10849652.
